Experimental data reported in patent US20080181877A1, “Method For Monitoring the Effect of Compounds on Foxc2 Expression” (LEANGENE AB, C/O CIT Ekonomiservice AB, priority 2006, published 2008).
“Also recorded” adds a separate entry of the source. For at least one compound, name, drawing or mass did not settle the structure.

System: Foxc2 expression
Assay: High through-put screening: beta-gal activity (Beta-glo kit) in Foxc2nLacZ MEFs differentiated into adipocytes
Assay type: cell-based, mouse
Experimental: Primary MEFs from both wild type and Foxc2nLacZ knock-in mice were maintained in DMEM supplied with 10% FBS and antibiotics. For differentiation into adipocytes the MEFs were grown until confluency and then stimulated (Day 0) with a differentiation media (DMEM, 10% FBS, antibiotics, 1 uM dexamethasone, 0.5 mM isobutyl-methyl-xanthine, 10 ug/mL insulin, 20 ng/ml FGF (all from Sigma), and 1 uM rosiglitazone (Alexis)). New differentiation media was added at day 3. At day 5 the differentiation media was removed and the cells were cultured in a media containing DMEM, 10% FBS, antibiotics, 10 ug/mL insulin, 1 uM rosiglitazone, and 20 ng/ml FGF. This media was changed every second day. From day 10 the cells were kept DMEM supplied with 10% FBS and antibiotics for 24 hours as a wash out period before initiating the experiments.
Foxc2nLacZ MEFs were plated onto gelatine coated 96 well plates. Differentiation was initialized after confluence according to protocol. […] After a wash out period for 24 hours the cells were subjected to different compounds for the indicated time points and subsequently induction of β-gal enzyme activity was measured using the Beta-glo kit (Promega) and a luminometric plate reader. Confluent cells differentiated into adipocytes were detected by increased X-gal staining (FIG. 5a-d), Foxc2nLacZ protein levels increased transiently during the differentiation process. […]

## C=C[C@@]1(C)CC(=O)[C@]2(O)[C@@]3(C)[C@@H](O)CCC(C)(C)[C@@H]3[C@H](O)[C@H](OC(C)=O)[C@@]2(C)O1 [forskolin, 7 beta-acetoxy-8, 13-epoxy-1 alpha,6 beta,9 alpha-trihydroxy-labd-14-ene-11-one]
Foxc2nLacZ MEFs differentiated into adipocytes, 96 well plates, 50 μg per well at 0 h, acute treatment, Beta-glo kit
  beta-gal activity: increase in beta-gal activity; also recorded: increase of beta-gal activity
Single dose, gene construct with in frame fusion of Foxc2 with a reporter gene
  levels of reporter gene over time: fast increasing of the levels of reporter gene followed by a fast decreasing to normal levels
